This is one part of the list. Shown are side measurements of this screen, not its main read-out; they come without a call. Most of these compounds were active or inconclusive in the main read-out, so they are no random draw. The note in brackets gives the kind of curve behind each potency; many fits are weak.
Assay: qHTS Assay for Modulators of Lamin A Splicing
Settings: HeLa LMNA splicing GFP/RFP minigene ratio, 48 h
How it was run: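 Read-out is the ratio of GFP to DsRed2 object intensity, acquired by 488 nm laser-scanning cytometry on HeLa lamin A-EGFP minigene reporter cells. Compound incubation 48 hrs at 37 °C in Opti-MEM with 2% FBS; DMSO 0.5% final.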

[1] = measured here: RFP viability control channel
[2] = measured here: GFP splicing reporter channel

CCc1ccc(OCC(=O)N/N=C(\C)c2ccccc2OC(F)F)cc1
AC50 [1]: 11.2 µM [rising, single point]

CCOc1ccccc1C(=O)N[C@H](C(=O)OCc1cc(=O)oc2cc(C)ccc12)C(C)C
AC50 [2]: 35.5 µM [rising, single point]
AC50 [1]: 35.5 µM [rising, single point]

CNC(=O)[C@H]1O[C@@H](n2cnc3c(NCc4ccc(N)cc4)ncnc32)[C@H](O)[C@H]1O
AC50 [2]: 7.08 µM [rising, partial curve, poor fit]

COc1ccc(Nc2nnc(SCC(=O)NC(=O)Nc3ccc4c(c3)OCCO4)s2)cc1
AC50 [1]: 0.0224 µM [rising, full curve, poor fit]

COc1ccccc1NS(=O)(=O)c1cc(NC(=O)c2ccc3c(c2)OCCO3)ccc1C
AC50 [2]: 3.55 µM [rising, partial curve]
AC50 [1]: 11.2 µM [rising, partial curve]

CCCn1nnc(NCc2ccc(OCc3cccs3)c(OC)c2)n1
AC50 [1]: 15.8 µM [rising, partial curve, poor fit]

CN1CCN(S(=O)(=O)c2cccc(C(=O)Nc3sc4c(c3-c3nc5ccccc5[nH]3)CCCC4)c2)CC1
AC50 [1]: 8.91 µM [rising, partial curve, poor fit]

Cc1nc(NC(=O)c2ccc(OCC(C)C)cc2)sc1Cc1ccc2c(c1)OCO2
AC50 [2]: 31.6 µM [rising, single point]

CN=C1CC(C)(C)CC(=O)/C1=C(/O)CCCN1C(=O)c2ccccc2C1=O
AC50 [2]: 0.0178 µM [rising, full curve, poor fit]
AC50 [1]: 0.398 µM [rising, full curve]

O=C(CCCCCn1c(=S)[nH]c2cc3c(cc2c1=O)OCO3)N1CCN(Cc2ccccc2)CC1
AC50 [1]: 15.8 µM [rising, single point]

O=C(Nc1ccccc1)c1snc2c(=O)[nH]cnc12
AC50 [2]: 0.631 µM [rising, partial curve, poor fit]
AC50 [1]: 0.224 µM [rising, full curve, poor fit]

Cc1ccc(Cl)cc1NC(=O)COC(=O)Cn1cnc2c1c(=O)n(C)c(=O)n2C
AC50 [1]: 35.5 µM [falling, partial curve]

O=C(NC(NC(=S)Nc1cccc(Cl)c1)C(Cl)(Cl)Cl)OCc1ccccc1 (stereo not given)
AC50 [2]: 11.2 µM [rising, partial curve]
AC50 [1]: 17.8 µM [rising, single point]

Nc1ccc(Nc2nc(-c3ccncc3)cs2)cc1
AC50 [1]: 14.1 µM [rising, single point]

CCN(Cc1ccncc1)Cc1c(O)ccc2cc(Br)ccc12
AC50 [2]: 0.282 µM [falling, single point]

NCCC[C@H](N)CC(=O)N[C@H]1CNC(=O)[C@@H]([C@@H]2C[C@H](O)N=C(N)N2)NC(=O)/C(=C/NC(N)=O)NC(=O)[C@@H](CO)NC(=O)[C@@H](CO)NC1=O
AC50 [1]: 0.398 µM [rising, single point]

CCCCCCC(=O)N(O)C1CC(=O)N(Cc2ccccc2)C1=O (stereo not given)
AC50 [1]: 11.2 µM [rising, partial curve]

CN(C)CCCC(C)(O)C(C)(C)c1ccccc1 (stereo not given)
AC50 [1]: 0.00501 µM [falling, full curve, poor fit]

Oc1cccc(Nc2nc(NCC3CCCO3)c3ccccc3n2)c1 (stereo not given)
AC50 [2]: 35.5 µM [rising, single point]
AC50 [1]: 20 µM [rising, single point]

CCCCN(C)C(=O)c1ccc2c(c1)N(Cc1cccc(F)c1)C(=O)c1ccccc1S2
AC50 [2]: 3.16 µM [rising, partial curve]

O=C(Nc1nccs1)c1cc(-c2ccco2)nc2ccccc12
AC50 [2]: 8.91 µM [rising, partial curve, poor fit]
AC50 [1]: 6.31 µM [rising, partial curve]

CC(C)c1ccc(-c2nnn(CCC#N)n2)cc1
AC50 [1]: 3.16 µM [falling, partial curve, poor fit]

O=C(NC(=S)N1CCN(Cc2ccc3c(c2)OCO3)CC1)c1ccc(Cl)cc1
AC50 [1]: 25.1 µM [rising, single point]

O=C(COC(=O)C1(c2ccc(F)cc2)CCCC1)N1CCN(C(=O)c2ccco2)CC1
AC50 [1]: 20 µM [rising, partial curve]

O=C(COC(=O)c1ccco1)Nc1ccc2c(c1)OCCO2
AC50 [1]: 3.16 µM [rising, single point]

CCOC(=O)c1ccc(Nc2nn3c(=O)c4ccccc4nc3s2)cc1
AC50 [2]: 14.1 µM [falling, single point]
AC50 [1]: 20 µM [falling, single point]

COc1cc(C(F)(F)F)nc2c(Br)c(C(C)(C)C)nn12
AC50 [2]: 35.5 µM [falling, single point]

Cc1ccc(CNC(=O)c2ccc(CS(=O)(=O)Cc3ccc(C)cc3)o2)cc1
AC50 [1]: 0.00316 µM [falling, full curve, poor fit]

O=C(c1cnc(N2CCN(c3ccccn3)CC2)c2ccccc12)N1CCN(c2cccc(Cl)c2)CC1
AC50 [2]: 3.98 µM [falling, single point]
AC50 [1]: 0.158 µM [falling, partial curve, poor fit]

O=C(Nc1nc(-c2ccccc2)cs1)c1cccnc1
AC50 [1]: 31.6 µM [rising, single point]

COc1cc(/C=C2\CCc3ccccc3C2=O)cc(OC)c1OC
AC50 [1]: 15.8 µM [rising, partial curve]

CCOCCCNC(=O)/C(C#N)=C/c1ccc(Cl)c([N+](=O)[O-])c1
AC50 [1]: 35.5 µM [rising, single point]

Cc1cc2cc(CN(CC3CCCO3)C(=S)Nc3ccccc3)c(=O)[nH]c2cc1C (stereo not given)
AC50 [1]: 7.94 µM [rising, single point]

O=C(CCC1N=C2c3ccccc3N=C(SCC(=O)Nc3ccc(F)cc3)N2C1=O)NCc1ccco1 (stereo not given)
AC50 [2]: 35.5 µM [falling, single point]
AC50 [1]: 35.5 µM [falling, partial curve, poor fit]

CCCCOc1ccc(-c2nnc(-c3ccncc3)o2)cc1
AC50 [1]: 25.1 µM [rising, single point]
